Reference: the supplement of paper PMC12889115
Some of the results follow. These are raw signals, not scaled to a control.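 First-pass screen: polymyxin B was added at a level that permeabilizes the Salmonella outer membrane while sparing the inner membrane. DMSO wells, with and without polymyxin B, defined maximum growth. Because plates differed from one another, each plate's data were ranked separately and the compounds with the lowest OD600 were carried forward as hits.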

System: Salmonella enterica serovar Typhimurium SL1344
Assay: bacterial growth OD600 after 18 h with compound and polymyxin B; higher = more bacterial growth (less inhibition)
Conditions: 50 µM, Mueller-Hinton broth

Structure (SMILES)	bacterial growth OD600 (polymyxin B 0.75 µg/mL)	bacterial growth OD600 (polymyxin B 1 µg/mL)
CCN(CCN(C)C)C(=O)C1CC(=O)c2sc(NC(=O)c3cccc(F)c3)nc2C1 (stereo not given)	0.777	
Cc1cccc(-c2cnc(-c3ccncc3)nc2C2CCN(Cc3ccsc3)CC2)c1	0.728	
COc1cccc(C(=O)NCC2CCCN(CC#Cc3ccccc3)C2)c1OC (stereo not given)		0.766
O=C(Cc1ccccc1)N1CCC(C2(c3ccccn3)NC(=O)N(CCc3cccs3)C2=O)CC1 (stereo not given)	0.954	
CCN(CC1CCCN(CCc2cccc(F)c2)C1)C(=O)Cc1ccc(OC)cc1 (stereo not given)		0.703
COc1cc(NC(=O)CCC2CCCN(C(=O)Cn3ccc(C)n3)C2)cc(OC)c1 (stereo not given)		0.812
CCOc1ccc2nc(N3CCCN(Cc4ccc(NC(C)=O)cc4)CC3)nc(C)c2c1	0.569	
Cc1ccc(C(=O)N2CCCC(CO)(Cc3ccccc3)C2)cc1N1CCNC1=O (stereo not given)		0.873
O=C(CC1CCCC1)Nc1cccc(N2CCC(NCc3cnn(Cc4ccccc4)c3)CC2)c1	0.805	
CCOC(=O)C1CCN(CC2(O)CCCN(Cc3ccccc3F)C2=O)CC1 (stereo not given)		0.924
O=C1CCC(CCC(=O)N2CCCC2c2ccc(F)cc2)(Cc2ccccc2)N1 (stereo not given)	1.04	
CSc1ccc(CC2(CCC(=O)NCc3nc(-c4ccccc4)cs3)CCC(=O)N2)cc1 (stereo not given)	0.668	
CC1CCN(C(=O)CC2C(=O)NCCN2Cc2cccc(C(F)(F)F)c2)CC1 (stereo not given)		0.86
COc1ccc(CN2CCOc3ccc(C(O)Cc4ccccc4)cc3C2)c(OC)c1 (stereo not given)	0.551	
O=C(NCCc1cscn1)c1cc(Cn2ccc3ccccc32)[nH]n1	0.803	
Cc1cc(CNC(=O)c2cnn(-c3ncc4c(n3)-c3ccccc3CC4)c2C)on1	1.03	
COC(=O)CCCNC(=O)c1ccc2nc(Cc3ccccc3F)oc2c1	0.898	
COCCNC(=O)c1ccc(OC)cc1OC1CCN(Cc2ccc(SC)cc2)CC1		1.21
CN(C)C(=O)CN1CCN(Cc2nc(-c3ccc(Cl)cc3)no2)CC1		0.866
Cc1cc(N2CCN(C(=O)Cn3nnnc3CN3CCC(C)CC3)CC2)cc(C)n1	0.821	
CO[C@H]1[C@H](NC(=O)COc2ccccc2)c2ccccc2C12CCN(C(=O)C1(C)CC1)CC2	0.811	
O=C(N1CCCC(Nc2ccc(F)cc2)C1)C12CC3CC(CC(C3)C1)C2 (stereo not given)		0.035
Cc1ccccc1CCC1CCCN(C(=O)CC2CC2)C1 (stereo not given)	0.001	
Cc1ncsc1CCC(=O)NC1CCCc2c1cnn2-c1ccccc1F (stereo not given)		0.793
CC(C)(CN1CCOCC1)CN1CC[C@@H](N2CCCCCC2)[C@H](O)C1	0.796	
Cc1nc(N2CCC(C(=O)NC34CC5CC(CC(C5)C3)C4)CC2)nc2cc(S(C)(=O)=O)ccc12	0.003	
O=C(c1coc(COc2ccc(F)cc2)n1)N1CCN(CC2CC2)CC1		1
c1csc(CN(CCN2CCCCC2)CC2CCCN(C3CCCC3)C2)n1 (stereo not given)	0.784	
CC(Cc1cccnc1)NC(=O)c1cc(COc2cccc3cnccc23)on1 (stereo not given)	0.003	
Cc1nc(CNCC2(O)CCCN(Cc3ccc(F)c(F)c3)C2=O)cs1 (stereo not given)		0.895

2 compounds drawn at random from those above:
Structure (SMILES)	bacterial growth OD600 (polymyxin B 0.75 µg/mL)	bacterial growth OD600 (polymyxin B 1 µg/mL)
CCN(CC1CCCN(CCc2cccc(F)c2)C1)C(=O)Cc1ccc(OC)cc1 (stereo not given)		0.703
COc1cc(NC(=O)CCC2CCCN(C(=O)Cn3ccc(C)n3)C2)cc(OC)c1 (stereo not given)		0.812
